The supplement of paper PMC8288183
Some of the results follow. Many values rest on one well or one pass, so single values are uncertain.

Biological target: T1, NSUN6 (UniProt Q8TEA1)
T1 sequence: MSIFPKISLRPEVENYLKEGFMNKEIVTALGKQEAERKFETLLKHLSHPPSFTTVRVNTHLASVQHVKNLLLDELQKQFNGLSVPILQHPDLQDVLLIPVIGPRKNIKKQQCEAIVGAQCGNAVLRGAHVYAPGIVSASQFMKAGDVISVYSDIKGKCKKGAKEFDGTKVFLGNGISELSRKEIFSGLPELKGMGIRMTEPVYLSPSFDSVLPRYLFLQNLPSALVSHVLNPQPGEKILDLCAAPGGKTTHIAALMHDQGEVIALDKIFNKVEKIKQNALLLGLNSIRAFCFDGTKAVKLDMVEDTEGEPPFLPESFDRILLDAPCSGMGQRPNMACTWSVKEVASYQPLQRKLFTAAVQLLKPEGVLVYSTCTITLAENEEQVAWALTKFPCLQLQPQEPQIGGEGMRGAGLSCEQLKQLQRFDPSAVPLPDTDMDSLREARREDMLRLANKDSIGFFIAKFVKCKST
Assay: m5C methylation level at the target C (C/(C+U) bisulfite reads) (fraction); higher = more methylation by NSUN6; extreme values may be limits of the assay
Conditions: HEK293T (wild-type)
Procedure: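 High-throughput mutagenesis reporter. About 140 bp oligo-pool variants of four natural Type II m5C substrates (substrate #1 chr15:91425541; #2 RAB15 3'UTR chr14:65413377; #3 SULT2A1 5'UTR chr19:48389569; #4 NAAA CDS chr4:76857361) were cloned as 3'UTR elements of psiCHECK-2 luciferase and transfected into wild-type HEK293T cells. Total RNA was taken 48 h later and m5C level was measured by targeted bisulfite sequencing as C/(C+U) reads at the m5C site (one library).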

[1] = parent substrate: substrate #1 (main figure)

| Sequence | m5C methylation level at the target C [1] | m5C methylation level at the target C (parent substrate: substrate #2) | m5C methylation level at the target C (parent substrate: substrate #3) | m5C methylation level at the target C (parent substrate: substrate #4) |
| --- | --- | --- | --- | --- |
| ACUUGG | 0.000869 | 0 | 0.00152 | 0.00911 |
| ACAACC | 0 | 0 | 0 | 0.00249 |
| GCUUCU | 0.0041 | 0 | 0.00266 | 0.000648 |
| CCUCAA | 0.016 | 0 | 0.0168 | 0.00699 |
| CCAUCA | 0.00259 | 0 | 0.000306 | 0 |
| UCAGUC | 0 | 0 | 0.000856 | 0 |
| CCAAAA | 0 | 0.00112 | 0.0015 | 0.00174 |
| UCUACG | 0.000452 | 0.00504 | 0.000377 | 0.00221 |
| GCCGCG | 0.00203 | 0.00115 | 0 | 0.00838 |
| GCAAGC | 0 | 0.00329 | 0 | 0 |
| UCAAAA | 0.00159 | 0 | 0 | 0 |
| UCUUGG | 0 | 0.00121 | 0 | 0.00279 |
| GCGAAC | 0.00473 | 0.0102 | 0.000575 | 0.00297 |
| GCGACA | 0.000646 | 0.00163 | 0.00118 | 0.000748 |
| UCACUA | 0 | 0 | 0.00059 | 0.000549 |
| CCGCGC | 0.000407 | 0.00104 | 0.00474 | 0.00157 |
| UCGACA | 0.00188 | 0 | 0.00714 | 0.00119 |
| UCGGUG | 0.0028 | 0.00206 | 0.000669 | 0.00813 |
| UCCGUC | 0 | 0.00364 | 0.00124 | 0.00197 |
| UCCAAU | 0 | 0 | 0.00301 | 0.000632 |
| GCGGUU | 0 | 0.000751 | 0 | 0 |
| GCUUGU | 0.000592 | 0.00243 | 0.000769 | 0.00269 |
| CCCAAG | 0.00214 | 0.00082 | 0.00054 | 0 |
| UCAAAG | 0 | 0 | 0 | 0 |

| Sequence | m5C methylation level at the target C [1] | m5C methylation level at the target C (parent substrate: substrate #2) | m5C methylation level at the target C (parent substrate: substrate #3) | m5C methylation level at the target C (parent substrate: substrate #4) |
| --- | --- | --- | --- | --- |
| UCCUAU | 0 | 0.00114 | 0.00123 | 0 |
| CCAGUC | 0.000955 | 0.00685 | 0.00324 | 0.00178 |
| CCAUGC | 0 | 0 | 0.00414 | 0 |
| CCUUCA | 0.00203 | 0 | 0.0014 | 0.000902 |
| GCGUCA | 0.00231 | 0 | 0.000803 | 0.00185 |
| ACCCUU | 0 | 0.00269 | 0.000326 | 0 |
| ACGGAA | 0.000487 | 0.00113 | 0.00281 | 0.00309 |
| GCCAUC | 0.00103 | 0 | 0.000517 | 0.000562 |
| ACCUUG | 0.000543 | 0 | 0.000538 | 0.00397 |
| GCUCUU | 0.00497 | 0.00918 | 0.00384 | 0.0149 |
| ACACCC | 0 | 0.00395 | 0 | 0.000875 |
| GCUCCA | 0.454 | 0.0277 | 0.132 | 0.133 |
| UCCAUA | 0 | 0 | 0.00103 | 0.00154 |
| GCGGAA | 0.00126 | 0.0011 | 0.00605 | 0.00152 |
| ACGCUG | 0.00176 | 0.00396 | 0.00334 | 0 |
| UCGCCU | 0.00273 | 0.00106 | 0.000402 | 0 |
| UCACAU | 0 | 0 | 0.00403 | 0.00372 |
| GCUUAA | 0.000597 | 0.00503 | 0 | 0.00278 |
| UCUCCC | 0.00153 | 0 | 0 | 0.000967 |
| UCUCUU | 0 | 0 | 0 | 0.000675 |
| UCCGAA | 0.00132 | 0 | 0 | 0.000812 |
| CCAGAA | 0.00417 | 0.00983 | 0 | 0 |
| ACUAUU | 0.00245 | 0.00234 | 0 | 0.000773 |
| CCCUCU | 0.00702 | 0.00207 | 0.000602 | 0.00171 |

| Sequence | m5C methylation level at the target C [1] | m5C methylation level at the target C (parent substrate: substrate #2) | m5C methylation level at the target C (parent substrate: substrate #3) | m5C methylation level at the target C (parent substrate: substrate #4) |
| --- | --- | --- | --- | --- |
| UCGUCC | 0.00116 | 0.00163 | 0.000882 | 0.00209 |
| ACACAG | 0.000787 | 0 | 0.00489 | 0 |
| GCGAUU | 0.00273 | 0.00245 | 0.000986 | 0.00248 |
| CCCCCG | 0 | 0.00112 | 0.00205 | 0.000551 |
| ACCCUG | 0.0016 | 0.00389 | 0.00181 | 0 |
| CCCGGC | 0 | 0 | 0.00154 | 0 |
| GCUAGA | 0.00217 | 0.0021 | 0.000922 | 0.000889 |
| ACCGAC | 0.00476 | 0 | 0.000754 | 0.00104 |
| CCCCUU | 0.00335 | 0 | 0 | 0 |
| UCCAGC | 0 | 0 | 0.00157 | 0.00109 |
| ACUAAG | 0 | 0.00111 | 0.000864 | 0 |
| UCGCGG | 0.000763 | 0 | 0.00139 | 0.00301 |
| ACUGCG | 0.000478 | 0.00379 | 0.000995 | 0 |
| UCCGCU | 0 | 0 | 0.000624 | 0.00716 |
| CCCGUG | 0.00118 | 0 | 0.00118 | 0 |
| CCUUGG | 0 | 0.000879 | 0 | 0.00167 |
| UCAUAU | 0 | 0 | 0 | 0 |
| ACGACU | 0.00119 | 0.00131 | 0.00192 | 0 |
| ACAGGA | 0.00167 | 0.00127 | 0.00577 | 0.000876 |
| CCAAGA | 0 | 0 | 0.00394 | 0.000931 |
| CCACUC | 0.000587 | 0.000875 | 0.000279 | 0 |
| GCACGC | 0.00106 | 0.00101 | 0 | 0.0133 |
| ACAGUG | 0.000881 | 0.00166 | 0.00669 | 0 |
| CCCGAG | 0 | 0 | 0 | 0.0012 |

Reprinted at random: 3 entries already listed.

| Sequence | m5C methylation level at the target C [1] | m5C methylation level at the target C (parent substrate: substrate #2) | m5C methylation level at the target C (parent substrate: substrate #3) | m5C methylation level at the target C (parent substrate: substrate #4) |
| --- | --- | --- | --- | --- |
| CCCGAG | 0 | 0 | 0 | 0.0012 |
| ACACAG | 0.000787 | 0 | 0.00489 | 0 |
| UCCGCU | 0 | 0 | 0.000624 | 0.00716 |

Further results follow.

| Sequence | m5C methylation level at the target C [1] | m5C methylation level at the target C (parent substrate: substrate #2) | m5C methylation level at the target C (parent substrate: substrate #3) | m5C methylation level at the target C (parent substrate: substrate #4) |
| --- | --- | --- | --- | --- |
| ACAUGA | 0.0029 | 0 | 0 | 0.0033 |
| ACCGGA | 0 | 0.00379 | 0 | 0 |
| ACUUAG | 0.00265 | 0.00101 | 0.000471 | 0.00469 |
| UCCCCC | 0.0112 | 0 | 0.00157 | 0.000789 |
| CCUACA | 0.00171 | 0.00177 | 0.00323 | 0 |
| CCAGCG | 0.000592 | 0 | 0.0051 | 0.000686 |
| CCACGA | 0.000395 | 0 | 0.00229 | 0 |
| GCUAAA | 0.000724 | 0.00156 | 0.00241 | 0.00175 |
| ACUAGU | 0.00109 | 0 | 0.00186 | 0 |
| ACCUGU | 0.000705 | 0.00442 | 0.00066 | 0 |
| GCCCGC | 0.00217 | 0.00208 | 0.00319 | 0.0012 |
| GCUCAA | 0.0179 | 0.000898 | 0.00106 | 0 |
| GCCUGG | 0.00375 | 0 | 0.000643 | 0.00217 |
| ACUGAA | 0.00872 | 0 | 0.00613 | 0.00397 |
| UCGGCU | 0 | 0 | 0.000674 | 0.00181 |
| ACGAAC | 0.00547 | 0 | 0.000621 | 0 |
| ACCCAC | 0 | 0 | 0.000651 | 0 |
| CCCGAA | 0.00206 | 0.00106 | 0.00228 | 0.00273 |
| GCGACG | 0.000694 | 0 | 0.00387 | 0 |
| ACGAGU | 0.00547 | 0.00322 | 0 | 0 |
| CCCAAA | 0 | 0 | 0.000603 | 0 |
